Reference: the supplement of paper PMC4604168 (melanoma cell lines)
Some of the results follow. Single values are uncertain, as repeats are few or missing.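 The apoptosis fraction was the count of cleaved-PARP antibody-stained nuclei relative to all DNA-stained nuclei, imaged in 1,536-well plates. Screening doses were set so most cells survived, and baseline and induced cleaved-PARP levels vary greatly across cell lines.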

How the values were obtained:
Assay in all cases: cleaved PARP positive nuclei fraction relative to DMSO control; melanoma cells; higher = more apoptosis
Details in all cases: library dose: low library concentration; 72 h
[1] = tested on: 501Mel
[2] = tested on: A101D
[3] = tested on: A2058
[4] = tested on: A375
[5] = tested on: C32
[6] = tested on: CBRC008 (line from a melanoma biopsy)
[7] = tested on: CBRC014 (line from a melanoma biopsy)
[8] = tested on: CBRC016 (line from a melanoma biopsy)
[9] = tested on: CBRC017 (line from a melanoma biopsy)
[10] = tested on: CBRC034 (line from a melanoma biopsy)
[11] = tested on: COLO792
[12] = tested on: COLO800
[13] = tested on: COLO829
[14] = tested on: G361
[15] = tested on: IPC-298
[16] = tested on: IST-MEL1
[17] = tested on: LB2518-MEL
[18] = tested on: LOXIMVI
[19] = tested on: MEL-HO

SMILES | cleaved PARP positive nuclei fraction [1] [%] | cleaved PARP positive nuclei fraction [2] [%] | cleaved PARP positive nuclei fraction [3] [%] | cleaved PARP positive nuclei fraction [4] [%] | cleaved PARP positive nuclei fraction [5] [%] | cleaved PARP positive nuclei fraction [6] [%] | cleaved PARP positive nuclei fraction [7] [%] | cleaved PARP positive nuclei fraction [8] [%] | cleaved PARP positive nuclei fraction [9] [%] | cleaved PARP positive nuclei fraction [10] [%] | cleaved PARP positive nuclei fraction [11] [%] | cleaved PARP positive nuclei fraction [12] [%] | cleaved PARP positive nuclei fraction [13] [%] | cleaved PARP positive nuclei fraction [14] [%] | cleaved PARP positive nuclei fraction [15] [%] | cleaved PARP positive nuclei fraction [16] [%] | cleaved PARP positive nuclei fraction [17] [%] | cleaved PARP positive nuclei fraction [18] [%] | cleaved PARP positive nuclei fraction [19] [%]
NC(=O)c1ccc(N(C(N)=O)c2c(F)cccc2F)nc1-c1ccc(F)cc1F + C[C@]1(c2nc3c(C(N)=O)cccc3[nH]2)CCCN1 [Veliparib] (first compound 0.4 µM, partner dose 1.4 µM) | 105 | 51.3 | 62.1 | 144 | 73.9 | 90.3 | 110 | 114 | 104 | 37.6 | 82.6 | 97.4 | 61.8 | 207 | 84.8 | 107 | 114 | 73.3 | 39.1
NC1(c2ccc(-c3nc4ccn5c(=O)[nH]nc5c4cc3-c3ccccc3)cc2)CCC1 + C=CCNC1=C2C[C@@H](C)C[C@H](OC)[C@H](O)[C@@H](C)/C=C(\C)[C@H](OC(N)=O)[C@@H](OC)/C=C\C=C(/C)C(=O)NC(=CC1=O)C2=O [Tanespimycin] (first compound 0.4 µM, partner dose 0.002 µM) | 82.1 | 464 | 142 | 160 | 150 | 21.5 | 81.1 | 32 | 79.8 | 157 | 196 | 109 | 78.7 | 276 | 82 | 268 | 99.4 | 106 | 66.9
CC(=O)O[C@@]12CO[C@@H]1C[C@H](O)[C@@]1(C)C(=O)[C@H](O)C3=C(C)[C@@H](OC(=O)[C@H](O)[C@@H](NC(=O)OC(C)(C)C)c4ccccc4)C[C@@](O)([C@@H](OC(=O)c4ccccc4)[C@H]21)C3(C)C [Docetaxel] + CNC(=O)c1cc(Oc2ccc(NC(=O)Nc3ccc(Cl)c(C(F)(F)F)c3)cc2)ccn1 [sorafenib] (first compound 0.0001 µM, partner dose 0.4 µM) | 139 | 72 | 1800 | 2480 | 80.3 | 1270 | 140 | 307 | 174 | 401 | 565 | 475 | 368 | 830 | 311 | 227 | 241 | 68.6 | 350
CCN(CC)CCNC(=O)c1c(C)[nH]c(/C=C2\C(=O)Nc3ccc(F)cc32)c1C [sunitinib] + C#Cc1cccc(Nc2ncnc3cc(OCCOC)c(OCCOC)cc23)c1 [erlotinib] (first compound 0.4 µM, partner dose 0.8 µM) | 153 | 371 | 244 | 223 | 77.7 | 236 | 105 | 195 | 168 | 96.4 | 166 | 63.7 | 84.2 | 84.3 | 555 | 58.4 | 91.4 | 33 | 102
CC1(C)CCC(c2ccc(Cl)cc2)=C(CN2CCN(c3ccc(C(=O)NS(=O)(=O)c4ccc(N[C@H](CCN5CCOCC5)CSc5ccccc5)c(S(=O)(=O)C(F)(F)F)c4)cc3)CC2)C1 + CS(=O)(=O)CCNCc1ccc(-c2ccc3ncnc(Nc4ccc(OCc5cccc(F)c5)c(Cl)c4)c3c2)o1 [lapatinib] (first compound 0.4 µM, partner dose 0.8 µM) | 86.5 | 211 | 207 | 371 | 113 | 310 | 449 | 637 | 395 | 58.6 | 416 | 131 | 64 | 225 | 87.6 | 148 | 130 | 209 | 166
COc1ccc(C2=N[C@@H](c3ccc(Cl)cc3)[C@@H](c3ccc(Cl)cc3)N2C(=O)N2CCNC(=O)C2)c(OC(C)C)c1 [Nutlin-3] + COCC[n+]1c2c(n(Cc3cnccn3)c1C)C(=O)c1ccccc1C2=O [YM155] (first compound 0.1 µM, partner dose 0.0004 µM) | 177 | 94 | 120 | 75.1 | 89.4 | 126 | 101 | 58.7 | 251 | 240 | 83.1 | 51.2 | 196 | 134 | 55.5 | 63 | 121 | 49.5 | 82.8
CC1(C)CCC(c2ccc(Cl)cc2)=C(CN2CCN(c3ccc(C(=O)NS(=O)(=O)c4ccc(N[C@H](CCN5CCOCC5)CSc5ccccc5)c(S(=O)(=O)C(F)(F)F)c4)cc3)CC2)C1 + C[C@]1(c2nc3c(C(N)=O)cccc3[nH]2)CCCN1 [Veliparib] (first compound 0.4 µM, partner dose 1.4 µM) | 78.8 | 91.1 | 128 | 521 | 154 | 426 | 747 | 652 | 405 | 93.6 | 317 | 156 | 263 | 92.4 | 638 | 192 | 142 | 244 | 91
CC(=O)O[C@@]12CO[C@@H]1C[C@H](O)[C@@]1(C)C(=O)[C@H](O)C3=C(C)[C@@H](OC(=O)[C@H](O)[C@@H](NC(=O)OC(C)(C)C)c4ccccc4)C[C@@](O)([C@@H](OC(=O)c4ccccc4)[C@H]21)C3(C)C [Docetaxel] + CN1CCN(c2ccc3nc(-c4c(N)c5c(F)cccc5[nH]c4=O)[nH]c3c2)CC1 [Dovitinib] (first compound 0.0001 µM, partner dose 0.1 µM) | 161 | 288 | 1220 | 3380 | 88.4 | 241 | 180 | 345 | 239 | 116 | 473 | 120 | 352 | 802 | 478 | 204 | 278 | 31 | 254
NC(=O)c1ccc(N(C(N)=O)c2c(F)cccc2F)nc1-c1ccc(F)cc1F + CNC(=O)c1cc(Oc2ccc(NC(=O)Nc3ccc(Cl)c(C(F)(F)F)c3)cc2)ccn1 [sorafenib] (first compound 0.4 µM, partner dose 0.4 µM) | 71.7 | 45.1 | 114 | 243 | 78.6 | 142 | 188 | 41.9 | 124 | 128 | 83.4 | 87.2 | 105 | 40.5 | 94.1 | 128 | 77.5 | 68.2 | 65.3
Cn1sc(=O)n(Cc2ccccc2)c1=O + Nc1cccc2c1CN(C1CCC(=O)NC1=O)C2=O [lenalidomide] (first compound 0.4 µM, partner dose 1 µM) | 77.9 | 127 | 48.4 | 35.4 | 159 | 119 | 76.9 | 108 | 333 | 121 | 244 | 253 | 64.6 | 61.2 | 80.8 | 140 | 35 | 79.4 | 38.7
CCCCCCCCc1ccc(CCC(N)(CO)CO)cc1 [fingolimod] + C[C@@H](Oc1cc(-c2cnn(C3CCNCC3)c2)cnc1N)c1c(Cl)ccc(F)c1Cl [Crizotinib] (first compound 2 µM, partner dose 0.2 µM) | 753 | 157 | 107 | 239 | 75 | 77.3 | 90.8 | 86.7 | 165 | 147 | 67.8 | 90.8 | 180 | 111 | 56.4 | 55.4 | 127 | 105 | 74.3
Cn1sc(=O)n(Cc2ccccc2)c1=O + Cn1nnc2c(C(N)=O)ncn2c1=O [temozolomide] (first compound 0.4 µM, partner dose 2 µM) | 60.3 | 267 | 92.3 | 126 | 72.1 | 49.4 | 103 | 114 | 80.3 | 66.9 | 85.6 | 53.9 | 82.8 | 80.7 | 160 | 64.7 | 105 | 47.2 | 148
CC(=O)O[C@@]12CO[C@@H]1C[C@H](O)[C@@]1(C)C(=O)[C@H](O)C3=C(C)[C@@H](OC(=O)[C@H](O)[C@@H](NC(=O)OC(C)(C)C)c4ccccc4)C[C@@](O)([C@@H](OC(=O)c4ccccc4)[C@H]21)C3(C)C [Docetaxel] + Cc1cc(Nc2cc(N3CCN(C)CC3)nc(/C=C/c3ccccc3)n2)n[nH]1 [ENMD2076] (first compound 0.0001 µM, partner dose 0.04 µM) | 193 | 78 | 1590 | 2490 | 76.7 | 657 | 116 | 218 | 144 | 331 | 423 | 254 | 110 | 450 | 120 | 112 | 188 | 240 | 173
Cn1cnc2c(F)c(Nc3ccc(Br)cc3Cl)c(C(=O)NOCCO)cc21 [selumetinib] + Nc1cccc2c1CN(C1CCC(=O)NC1=O)C2=O [lenalidomide] (first compound 0.015 µM, partner dose 1 µM) | 3190 | 79.3 | 93.6 | 264 | 84.9 | 80.8 | 69.2 | 59.4 | 140 | 136 | 172 | 92.2 | 72.9 | 143 | 128 | 68.6 | 172 | 167 | 177
COc1ccc(C2=N[C@@H](c3ccc(Cl)cc3)[C@@H](c3ccc(Cl)cc3)N2C(=O)N2CCNC(=O)C2)c(OC(C)C)c1 [Nutlin-3] + Cn1c(=O)n(-c2ccc(C(C)(C)C#N)cc2)c2c3cc(-c4cnc5ccccc5c4)ccc3ncc21 [NVP-BEZ235] (first compound 0.1 µM, partner dose 0.004 µM) | 104 | 101 | 132 | 92.2 | 170 | 156 | 104 | 118 | 128 | 77.9 | 149 | 25.9 | 74.5 | 99.8 | 45.2 | 71.9 | 102 | 66.5 | 26.5
C[C@@H](N)c1ccc(C(=O)Nc2ccnc3[nH]ccc23)cc1 + COc1ccc(C2=N[C@@H](c3ccc(Cl)cc3)[C@@H](c3ccc(Cl)cc3)N2C(=O)N2CCNC(=O)C2)c(OC(C)C)c1 [Nutlin-3] (first compound 0.4 µM, partner dose 0.1 µM) | 79.3 | 89 | 173 | 96.2 | 26200 | 83.8 | 99.5 | 133 | 84.3 | 93.5 | 291 | 99.3 | 57.7 | 73.9 | 252 | 129 | 282 | 58.1 | 52.8

Single records, as listed above. Order of values: cleaved PARP positive nuclei fraction [1] [%] | cleaved PARP positive nuclei fraction [2] [%] | cleaved PARP positive nuclei fraction [3] [%] | cleaved PARP positive nuclei fraction [4] [%] | cleaved PARP positive nuclei fraction [5] [%] | cleaved PARP positive nuclei fraction [6] [%] | cleaved PARP positive nuclei fraction [7] [%] | cleaved PARP positive nuclei fraction [8] [%] | cleaved PARP positive nuclei fraction [9] [%] | cleaved PARP positive nuclei fraction [10] [%] | cleaved PARP positive nuclei fraction [11] [%] | cleaved PARP positive nuclei fraction [12] [%] | cleaved PARP positive nuclei fraction [13] [%] | cleaved PARP positive nuclei fraction [14] [%] | cleaved PARP positive nuclei fraction [15] [%] | cleaved PARP positive nuclei fraction [16] [%] | cleaved PARP positive nuclei fraction [17] [%] | cleaved PARP positive nuclei fraction [18] [%] | cleaved PARP positive nuclei fraction [19] [%]
CC1(C)CCC(c2ccc(Cl)cc2)=C(CN2CCN(c3ccc(C(=O)NS(=O)(=O)c4ccc(N[C@H](CCN5CCOCC5)CSc5ccccc5)c(S(=O)(=O)C(F)(F)F)c4)cc3)CC2)C1 + CS(=O)(=O)CCNCc1ccc(-c2ccc3ncnc(Nc4ccc(OCc5cccc(F)c5)c(Cl)c4)c3c2)o1 [lapatinib] (first compound 0.4 µM, partner dose 0.8 µM) as listed: 86.5 | 211 | 207 | 371 | 113 | 310 | 449 | 637 | 395 | 58.6 | 416 | 131 | 64 | 225 | 87.6 | 148 | 130 | 209 | 166
CC(=O)O[C@@]12CO[C@@H]1C[C@H](O)[C@@]1(C)C(=O)[C@H](O)C3=C(C)[C@@H](OC(=O)[C@H](O)[C@@H](NC(=O)OC(C)(C)C)c4ccccc4)C[C@@](O)([C@@H](OC(=O)c4ccccc4)[C@H]21)C3(C)C [Docetaxel] + CN1CCN(c2ccc3nc(-c4c(N)c5c(F)cccc5[nH]c4=O)[nH]c3c2)CC1 [Dovitinib] (first compound 0.0001 µM, partner dose 0.1 µM) as listed: 161 | 288 | 1220 | 3380 | 88.4 | 241 | 180 | 345 | 239 | 116 | 473 | 120 | 352 | 802 | 478 | 204 | 278 | 31 | 254
